Results taken from patent US20230112641A1, “METHODS OF TREATING DIARRHEA OR INFLAMMATORY CONDITIONS OF THE GUT” (ABBOTT LABORATORIES, priority 2020, published 2023).
At least one compound was matched to its structure with a doubt left.

Protein sequences, listed by entry. Tags and fused reporters are not part of them. Lines headed by an entry give the natural chain unless they say otherwise; changes in a name come on top.
UniProt Q8TDS4: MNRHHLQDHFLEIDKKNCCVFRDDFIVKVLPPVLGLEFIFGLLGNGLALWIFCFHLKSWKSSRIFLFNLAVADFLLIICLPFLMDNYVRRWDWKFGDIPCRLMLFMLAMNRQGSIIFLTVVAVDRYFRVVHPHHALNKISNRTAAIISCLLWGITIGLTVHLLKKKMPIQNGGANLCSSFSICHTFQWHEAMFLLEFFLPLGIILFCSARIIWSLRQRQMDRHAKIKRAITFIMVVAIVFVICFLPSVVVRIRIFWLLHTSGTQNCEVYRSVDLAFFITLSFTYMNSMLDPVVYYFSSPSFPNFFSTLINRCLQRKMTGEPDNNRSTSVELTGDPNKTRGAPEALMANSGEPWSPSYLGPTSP

What was measured:
[1] = test system: CD4+ FoxP3+ cells (Tregs); test: Formation of CD4+ FoxP3+ cells (Tregs) with colonic dendritic cells from control and GPR109A-knockout mice, FACS; assay type: cell-based; settings: for Fox93+ Treg cells: HMB 500 μM and 100 μM
human GPR109A [2] = target: T1, human GPR109A (Homo sapiens, UniProt Q8TDS4); test: Intracellular cAMP levels in forskolin-treated GPR109A-expressing colonic cells, measured by radioimmunoassay; settings: forskolin alone (control), FIGS. 2A and B
human GPR109A [3] = target: T1, human GPR109A; test: Intracellular cAMP levels in forskolin-treated GPR109A-expressing colonic cells, measured by fluorescence (cAMP-Glo Assay); assay type: cell-based; design: expressed in transfected cells; settings: GPR109A-expressing cells treated with forskolin alone; FIGS. 1A and 1B

Row | SMILES | Fox93+ Treg cells ([1]; cells derived from GPR109A −/− knockout mice) | Fox93+ Treg cells ([1]; cells derived from wild type mice) | production of Tregs ([1]; HMB 250-500 μM, GPR109A-dependent, FIGS. 4-5) | cellular levels of cAMP (human GPR109A [2]) | increase of cAMP levels (human GPR109A [3])
1 | CC(C)(O)CC(=O)O [HMB, beta-hydroxy-beta-methylbutyrate] | but not GPR109A −/− knockout mice | showed an increase | potentiated the production of Tregs in a GPR109A-dependent manner |  | 
2 | C=C[C@@]1(C)CC(=O)[C@]2(O)[C@@]3(C)[C@@H](O)CCC(C)(C)[C@@H]3[C@H](O)[C@H](OC(C)=O)[C@@]2(C)O1 [forskolin, reference compound] |  |  |  | increased cellular levels of cAMP | more than 10 fold
